Protein sequences can lack the tags named with them. For at least one entry, the source does not settle the construct or the ends of the probe.
What was measured:
[1] = biological target: T1, TR4 orphan receptor (NR2C2) (Homo sapiens) (UniProt P49116); assay: activity in cells; details: protein in cells, only the site is given
T1 sequence: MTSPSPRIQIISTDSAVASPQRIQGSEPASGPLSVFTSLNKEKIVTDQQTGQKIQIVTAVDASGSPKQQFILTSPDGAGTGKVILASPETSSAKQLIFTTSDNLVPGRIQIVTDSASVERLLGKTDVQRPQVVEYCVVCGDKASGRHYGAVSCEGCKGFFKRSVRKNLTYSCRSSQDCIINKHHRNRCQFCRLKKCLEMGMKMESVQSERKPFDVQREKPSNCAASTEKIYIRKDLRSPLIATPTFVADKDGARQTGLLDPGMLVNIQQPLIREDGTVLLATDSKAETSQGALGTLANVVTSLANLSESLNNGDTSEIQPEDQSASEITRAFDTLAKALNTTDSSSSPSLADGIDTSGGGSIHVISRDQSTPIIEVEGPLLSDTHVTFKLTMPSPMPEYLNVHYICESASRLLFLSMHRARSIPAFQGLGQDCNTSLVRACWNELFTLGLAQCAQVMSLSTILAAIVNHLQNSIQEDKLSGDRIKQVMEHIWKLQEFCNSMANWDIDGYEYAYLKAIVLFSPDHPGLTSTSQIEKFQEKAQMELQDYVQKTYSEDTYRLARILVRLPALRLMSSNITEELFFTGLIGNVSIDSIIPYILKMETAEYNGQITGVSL

[2] = biological target: T2, TR2 orphan receptor (TR2-11, NR2C1) (Homo sapiens) (UniProt P13056); assay: activity in cells; details: protein in cells, only the site is given
T2 sequence: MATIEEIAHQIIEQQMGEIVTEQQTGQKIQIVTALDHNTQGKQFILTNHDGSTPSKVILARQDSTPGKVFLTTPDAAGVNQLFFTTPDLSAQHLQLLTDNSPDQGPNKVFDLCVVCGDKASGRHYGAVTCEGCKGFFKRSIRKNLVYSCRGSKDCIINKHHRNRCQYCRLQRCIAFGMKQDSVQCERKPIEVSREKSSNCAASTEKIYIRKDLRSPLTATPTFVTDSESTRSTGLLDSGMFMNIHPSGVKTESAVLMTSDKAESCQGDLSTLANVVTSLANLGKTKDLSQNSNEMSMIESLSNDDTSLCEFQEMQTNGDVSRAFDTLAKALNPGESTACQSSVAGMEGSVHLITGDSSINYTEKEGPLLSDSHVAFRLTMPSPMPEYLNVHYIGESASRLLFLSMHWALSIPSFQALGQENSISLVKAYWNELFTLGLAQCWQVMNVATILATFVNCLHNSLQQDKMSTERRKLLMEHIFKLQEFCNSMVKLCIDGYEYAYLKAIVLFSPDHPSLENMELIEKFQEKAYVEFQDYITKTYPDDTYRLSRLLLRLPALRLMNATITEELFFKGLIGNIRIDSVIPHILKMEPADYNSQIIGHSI

[3] = biological target: T1, TR4 orphan receptor (NR2C2) (Homo sapiens); assay: EMSA; details: Scatchard; 25 mM Tris pH 8.0, 50 mM KCl, poly(dI.dC); protein translated in vitro; label: 32P

GGAAAAAGGTCAGG (double strand) [-228TR4RE]
activity on this sequence ([1]; significant luciferase repression, Y-1 cells): active

GGTTCACCGAAAGTTCA (double strand) [RARE of RARbeta]
activity on this sequence (% suppression) ([2]; RA-induced pRARbeta-CAT, 2 ug pCMV-TR2, HaCaT cells): 44.7

GTCGACAGGGGACCAGGACAAAGGTCACGTTCGGGAGTCGAC (double strand) [PPRE (rat acyl-CoA oxidase)]
Kd [3]: 0.34 nM | activity on this sequence (% (repressed to)) ([2]; Wy-14643-induced PPRE3-tk-LUC with PPARalpha, HaCaT cells, suppression disappears at higher TR2): 59.8 | activity on this sequence (% suppression) ([1]; Wy-14643-induced PPRE3-tk-LUC with PPARalpha, HaCaT cells, maximal): 95
